In the supplement of paper PMC10849652:
The list shows a part of the results. Residues, ends and D or L forms follow the SMILES beside them. *: point of attachment. Cbz = O=C(OCc1ccccc1)*

Sequences of proteins named here, by UniProt entry; tags and fusion partners are left off. A change or cut given only in a name is not applied to a line headed by its entry.
UniProt Q9Y484: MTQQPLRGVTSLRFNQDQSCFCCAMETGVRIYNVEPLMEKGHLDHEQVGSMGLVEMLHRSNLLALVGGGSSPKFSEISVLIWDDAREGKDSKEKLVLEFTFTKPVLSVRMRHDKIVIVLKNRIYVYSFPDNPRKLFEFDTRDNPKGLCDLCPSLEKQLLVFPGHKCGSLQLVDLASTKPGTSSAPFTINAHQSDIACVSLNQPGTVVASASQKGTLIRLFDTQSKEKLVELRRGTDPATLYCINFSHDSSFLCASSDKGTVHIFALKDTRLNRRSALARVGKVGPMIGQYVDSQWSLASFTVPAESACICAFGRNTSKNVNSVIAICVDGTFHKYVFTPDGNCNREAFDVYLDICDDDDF
UniProt Q9UN37: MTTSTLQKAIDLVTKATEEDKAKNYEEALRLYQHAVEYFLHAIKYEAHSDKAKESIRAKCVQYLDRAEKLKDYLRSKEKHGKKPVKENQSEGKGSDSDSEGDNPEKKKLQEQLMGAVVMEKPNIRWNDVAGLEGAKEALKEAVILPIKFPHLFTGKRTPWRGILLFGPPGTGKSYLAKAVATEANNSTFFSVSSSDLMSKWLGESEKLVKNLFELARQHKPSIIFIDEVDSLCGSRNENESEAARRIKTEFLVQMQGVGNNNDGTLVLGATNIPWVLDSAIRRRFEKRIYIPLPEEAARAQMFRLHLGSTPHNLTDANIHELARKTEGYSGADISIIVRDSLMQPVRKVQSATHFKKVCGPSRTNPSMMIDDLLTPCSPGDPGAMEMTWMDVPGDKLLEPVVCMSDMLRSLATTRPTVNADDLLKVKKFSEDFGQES
UniProt Q9Y6W5, whole entry, looked up: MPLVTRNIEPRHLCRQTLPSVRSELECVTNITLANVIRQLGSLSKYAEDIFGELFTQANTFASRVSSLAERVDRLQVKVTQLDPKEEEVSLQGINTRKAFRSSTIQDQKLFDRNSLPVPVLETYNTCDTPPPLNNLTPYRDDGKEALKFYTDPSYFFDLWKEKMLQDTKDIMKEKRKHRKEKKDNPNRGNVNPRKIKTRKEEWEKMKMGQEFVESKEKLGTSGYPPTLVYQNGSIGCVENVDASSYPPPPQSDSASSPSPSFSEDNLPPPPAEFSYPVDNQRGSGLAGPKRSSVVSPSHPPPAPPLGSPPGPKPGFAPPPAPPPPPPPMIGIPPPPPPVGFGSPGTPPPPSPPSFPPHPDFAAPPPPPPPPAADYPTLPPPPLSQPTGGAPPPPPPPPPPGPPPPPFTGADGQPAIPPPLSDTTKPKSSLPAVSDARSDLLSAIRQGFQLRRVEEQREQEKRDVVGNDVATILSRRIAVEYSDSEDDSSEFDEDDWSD
UniProt Q9BUR4: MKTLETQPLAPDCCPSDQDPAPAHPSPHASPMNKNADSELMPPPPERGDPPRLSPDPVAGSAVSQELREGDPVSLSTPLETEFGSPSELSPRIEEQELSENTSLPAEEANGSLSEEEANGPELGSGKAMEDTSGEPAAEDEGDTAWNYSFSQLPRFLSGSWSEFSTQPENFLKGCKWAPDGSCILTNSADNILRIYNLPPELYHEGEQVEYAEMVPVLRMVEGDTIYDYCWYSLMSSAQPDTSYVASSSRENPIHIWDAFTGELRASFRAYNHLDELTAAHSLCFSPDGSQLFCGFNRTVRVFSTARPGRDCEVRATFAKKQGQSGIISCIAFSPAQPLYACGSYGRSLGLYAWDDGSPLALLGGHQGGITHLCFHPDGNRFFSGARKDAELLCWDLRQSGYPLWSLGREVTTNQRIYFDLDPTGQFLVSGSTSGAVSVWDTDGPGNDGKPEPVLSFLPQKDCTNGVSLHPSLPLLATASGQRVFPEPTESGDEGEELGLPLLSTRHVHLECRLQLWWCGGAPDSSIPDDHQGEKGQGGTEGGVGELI
UniProt Q9BQA1, whole entry, looked up: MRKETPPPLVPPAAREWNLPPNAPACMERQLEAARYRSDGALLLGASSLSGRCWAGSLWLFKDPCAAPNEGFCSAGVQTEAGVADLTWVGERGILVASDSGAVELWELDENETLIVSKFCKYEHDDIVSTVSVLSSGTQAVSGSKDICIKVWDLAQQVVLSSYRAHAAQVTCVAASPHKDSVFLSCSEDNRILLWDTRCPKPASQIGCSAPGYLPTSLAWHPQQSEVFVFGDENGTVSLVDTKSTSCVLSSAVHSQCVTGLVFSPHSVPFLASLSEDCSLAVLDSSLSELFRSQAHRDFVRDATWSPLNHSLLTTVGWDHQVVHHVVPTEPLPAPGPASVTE
UniProt A6NGB9: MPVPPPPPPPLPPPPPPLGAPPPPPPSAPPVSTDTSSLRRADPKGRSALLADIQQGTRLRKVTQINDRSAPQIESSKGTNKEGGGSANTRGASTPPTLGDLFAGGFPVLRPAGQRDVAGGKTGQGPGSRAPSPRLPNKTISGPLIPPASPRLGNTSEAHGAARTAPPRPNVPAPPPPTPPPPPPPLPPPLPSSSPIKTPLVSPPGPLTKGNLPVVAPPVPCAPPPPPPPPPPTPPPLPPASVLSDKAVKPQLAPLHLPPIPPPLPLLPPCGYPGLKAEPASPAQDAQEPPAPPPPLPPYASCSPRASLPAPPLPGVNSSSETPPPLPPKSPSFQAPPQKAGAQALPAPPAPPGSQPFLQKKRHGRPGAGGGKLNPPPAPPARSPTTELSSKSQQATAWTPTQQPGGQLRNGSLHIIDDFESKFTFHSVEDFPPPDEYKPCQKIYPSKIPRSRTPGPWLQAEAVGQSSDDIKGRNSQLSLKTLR
UniProt Q92558: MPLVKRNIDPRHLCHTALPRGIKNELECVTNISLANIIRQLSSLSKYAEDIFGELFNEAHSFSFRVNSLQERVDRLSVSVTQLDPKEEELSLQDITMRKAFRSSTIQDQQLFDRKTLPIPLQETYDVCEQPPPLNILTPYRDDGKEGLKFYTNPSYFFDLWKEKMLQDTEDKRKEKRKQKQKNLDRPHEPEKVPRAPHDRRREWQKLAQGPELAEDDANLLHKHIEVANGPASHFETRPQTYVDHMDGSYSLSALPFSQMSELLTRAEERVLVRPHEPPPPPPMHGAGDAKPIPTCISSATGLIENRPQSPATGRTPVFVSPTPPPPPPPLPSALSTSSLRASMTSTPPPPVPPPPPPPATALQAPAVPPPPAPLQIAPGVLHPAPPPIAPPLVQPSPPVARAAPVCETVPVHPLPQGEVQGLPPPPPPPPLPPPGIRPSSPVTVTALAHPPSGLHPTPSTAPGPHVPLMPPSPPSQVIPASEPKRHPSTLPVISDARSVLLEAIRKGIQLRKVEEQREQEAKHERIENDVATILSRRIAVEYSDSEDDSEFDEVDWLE
UniProt Q4G0F5, whole entry, looked up: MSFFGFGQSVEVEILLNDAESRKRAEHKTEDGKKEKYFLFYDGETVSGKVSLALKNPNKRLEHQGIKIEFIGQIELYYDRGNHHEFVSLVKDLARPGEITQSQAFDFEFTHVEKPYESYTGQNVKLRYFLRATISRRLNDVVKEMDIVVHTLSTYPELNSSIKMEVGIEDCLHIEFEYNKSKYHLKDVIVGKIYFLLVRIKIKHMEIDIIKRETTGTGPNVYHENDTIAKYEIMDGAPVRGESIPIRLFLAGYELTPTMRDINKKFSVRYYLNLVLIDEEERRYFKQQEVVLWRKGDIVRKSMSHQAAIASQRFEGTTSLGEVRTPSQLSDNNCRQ
UniProt O75351, whole entry, looked up: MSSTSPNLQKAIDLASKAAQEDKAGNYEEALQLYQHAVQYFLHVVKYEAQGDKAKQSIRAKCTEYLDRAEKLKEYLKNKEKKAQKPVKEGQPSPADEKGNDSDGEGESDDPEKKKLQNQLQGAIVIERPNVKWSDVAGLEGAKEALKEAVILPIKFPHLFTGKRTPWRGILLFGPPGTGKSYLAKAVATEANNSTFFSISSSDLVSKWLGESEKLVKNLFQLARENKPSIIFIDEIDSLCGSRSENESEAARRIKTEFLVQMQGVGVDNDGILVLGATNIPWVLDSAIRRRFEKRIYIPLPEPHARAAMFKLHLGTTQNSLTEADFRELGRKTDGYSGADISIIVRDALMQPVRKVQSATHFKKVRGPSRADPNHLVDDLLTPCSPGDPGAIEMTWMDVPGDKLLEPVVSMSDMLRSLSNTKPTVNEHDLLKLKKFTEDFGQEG
UniProt Q8TF74: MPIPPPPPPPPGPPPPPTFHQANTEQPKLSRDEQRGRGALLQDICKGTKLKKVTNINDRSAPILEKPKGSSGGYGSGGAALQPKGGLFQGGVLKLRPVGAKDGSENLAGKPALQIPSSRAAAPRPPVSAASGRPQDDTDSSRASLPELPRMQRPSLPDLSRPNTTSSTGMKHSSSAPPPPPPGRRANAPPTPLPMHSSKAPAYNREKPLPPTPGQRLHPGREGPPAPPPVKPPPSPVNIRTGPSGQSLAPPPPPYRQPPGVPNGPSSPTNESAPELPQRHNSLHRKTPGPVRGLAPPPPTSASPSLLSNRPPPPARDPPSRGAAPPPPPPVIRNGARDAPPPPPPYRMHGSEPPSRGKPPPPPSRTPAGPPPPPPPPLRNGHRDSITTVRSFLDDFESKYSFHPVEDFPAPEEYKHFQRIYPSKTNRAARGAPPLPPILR
UniProt Q9NW82: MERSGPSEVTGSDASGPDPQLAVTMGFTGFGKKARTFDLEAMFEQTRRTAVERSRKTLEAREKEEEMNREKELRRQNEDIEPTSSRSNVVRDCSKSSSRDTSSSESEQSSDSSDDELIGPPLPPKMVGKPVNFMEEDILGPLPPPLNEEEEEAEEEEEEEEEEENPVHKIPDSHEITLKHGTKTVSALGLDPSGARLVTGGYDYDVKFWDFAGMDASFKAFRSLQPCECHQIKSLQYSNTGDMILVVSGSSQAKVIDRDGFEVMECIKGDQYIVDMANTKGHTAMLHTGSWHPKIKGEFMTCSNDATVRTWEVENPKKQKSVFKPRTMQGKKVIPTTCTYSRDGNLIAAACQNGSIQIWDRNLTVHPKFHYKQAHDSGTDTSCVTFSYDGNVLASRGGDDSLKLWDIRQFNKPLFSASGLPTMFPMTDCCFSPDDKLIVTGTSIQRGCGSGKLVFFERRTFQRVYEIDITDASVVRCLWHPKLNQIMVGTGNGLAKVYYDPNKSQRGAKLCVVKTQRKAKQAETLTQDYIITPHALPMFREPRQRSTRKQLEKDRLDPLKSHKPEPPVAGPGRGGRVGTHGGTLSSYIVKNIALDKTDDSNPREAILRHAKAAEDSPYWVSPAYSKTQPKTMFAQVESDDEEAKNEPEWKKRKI
UniProt Q9NRW7: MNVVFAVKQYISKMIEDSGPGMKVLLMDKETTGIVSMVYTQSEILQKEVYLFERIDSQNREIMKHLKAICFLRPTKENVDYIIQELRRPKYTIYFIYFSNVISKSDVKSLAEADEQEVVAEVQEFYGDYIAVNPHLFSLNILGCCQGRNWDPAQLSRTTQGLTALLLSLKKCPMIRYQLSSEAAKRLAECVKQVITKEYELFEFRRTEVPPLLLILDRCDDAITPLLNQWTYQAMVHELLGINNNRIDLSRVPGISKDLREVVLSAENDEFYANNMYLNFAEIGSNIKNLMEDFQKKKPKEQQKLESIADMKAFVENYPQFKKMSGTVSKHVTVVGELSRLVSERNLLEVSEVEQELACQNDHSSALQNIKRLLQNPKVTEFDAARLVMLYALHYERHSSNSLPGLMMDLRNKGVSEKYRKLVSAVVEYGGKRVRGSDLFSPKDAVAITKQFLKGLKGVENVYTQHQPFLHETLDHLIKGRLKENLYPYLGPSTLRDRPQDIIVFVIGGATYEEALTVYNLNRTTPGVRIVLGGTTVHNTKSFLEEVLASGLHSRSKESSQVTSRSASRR
UniProt Q8IWB7: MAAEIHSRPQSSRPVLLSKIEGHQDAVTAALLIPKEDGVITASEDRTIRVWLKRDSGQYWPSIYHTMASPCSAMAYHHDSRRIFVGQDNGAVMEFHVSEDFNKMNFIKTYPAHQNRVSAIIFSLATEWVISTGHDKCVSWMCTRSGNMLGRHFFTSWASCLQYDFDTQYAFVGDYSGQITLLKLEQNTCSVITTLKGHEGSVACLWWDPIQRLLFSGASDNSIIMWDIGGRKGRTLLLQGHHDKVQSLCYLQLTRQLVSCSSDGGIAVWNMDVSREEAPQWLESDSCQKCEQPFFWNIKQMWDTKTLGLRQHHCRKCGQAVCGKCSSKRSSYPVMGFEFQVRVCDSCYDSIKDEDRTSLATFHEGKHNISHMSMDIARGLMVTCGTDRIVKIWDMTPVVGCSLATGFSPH
UniProt Q6P4I2: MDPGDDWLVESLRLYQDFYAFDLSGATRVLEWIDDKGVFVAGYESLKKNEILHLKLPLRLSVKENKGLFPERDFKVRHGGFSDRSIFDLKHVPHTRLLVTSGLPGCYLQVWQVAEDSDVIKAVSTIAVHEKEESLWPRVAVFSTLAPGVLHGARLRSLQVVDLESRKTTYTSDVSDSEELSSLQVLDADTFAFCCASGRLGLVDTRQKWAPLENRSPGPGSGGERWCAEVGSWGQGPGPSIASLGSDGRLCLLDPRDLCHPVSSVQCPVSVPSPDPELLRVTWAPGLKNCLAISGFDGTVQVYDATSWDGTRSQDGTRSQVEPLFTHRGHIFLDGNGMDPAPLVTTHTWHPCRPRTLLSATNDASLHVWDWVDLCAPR

compound: CC(C)C1=C2N=C(C=C(N2N=C1)NCC3=CC=CC=C3)NCCCCCCN; experiment: log2 fold change, soluble protein after heating vs DMSO (PISA); higher = thermal stabilisation; K562 cells, 10 uM, 30 min; active = over 0.2 and 3.5 SD of the protein, either way, in both replicates (recomputed)
Outline: (§1)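 Values are thermal stability changes relative to control samples and are taken from duplicates. They are stated as log2 fold changes. Before quantification by TMTpro 16plex LC-MS/MS with equalised channel sums, K562 cells at 2×10^6 cells/mL were treated with 10 μM compound for 30 min, heated in aliquots for 3 min across 48°C-58°C, pooled, extracted in PBS with 0.5% NP-40 at 4°C, and centrifuged at 21,000xg for 90 min to give the soluble supernatant.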

log2 fold change, inactive:
VPS35 (UniProt Q96QK1) -0.072
WDR45 (UniProt Q9Y484) -0.048
VPS4A (UniProt Q9UN37) -0.146
WASF2 (UniProt Q9Y6W5) -0.023
WRAP53 (UniProt Q9BUR4) 0.017
WDR77 (UniProt Q9BQA1) -0.025
WIPF3 (UniProt A6NGB9) 0.076
WASF1 (UniProt Q92558) -0.037
VPS26B (UniProt Q4G0F5) 0.058

compound: CC(C)C[C@@H](C=O)NC(=O)[C@H](CC(C)C)NC(=O)[C@H](CC(C)C)NC(=O)OCc1ccccc1; experiment: as above
Outline: as §1

log2 fold change, inactive:
WDR5 (UniProt P61964) 0.007
WDR6 (UniProt Q9NNW5) -0.036
WDR13 (UniProt Q9H1Z4) 0.065
VPS4B (UniProt O75351) 0.026
WDR74 (UniProt Q6RFH5) 0.138
WDR36 (UniProt Q8NI36) 0.133
VPS13C (UniProt Q709C8) -0.027
WIPF2 (UniProt Q8TF74) 0.054
VPS36 (UniProt Q86VN1) 0.043
WDR70 (UniProt Q9NW82) 0.016
VPS26A (UniProt O75436) -0.021
VPS29 isoform 2 (UniProt Q9UBQ0) -0.025
WBP11 (UniProt Q9Y2W2) 0.016
WDR26, A0A499FIZ0 0.008
VPS45 (UniProt Q9NRW7) 0.059
WDR82 (UniProt Q6UXN9) -0.009
WDFY1 (UniProt Q8IWB7) 0.004
VPS37B (UniProt Q9H9H4) -0.024
VWDE (UniProt Q8N2E2) 0.013
VWA5A (UniProt O00534) 0.103
VPS13A (UniProt Q96RL7) -0.005
WASL (UniProt O00401) -0.024
WDR73 (UniProt Q6P4I2) -0.061
WASHC4 (UniProt Q2M389) 0.035
VPS35 (UniProt Q96QK1) -0.066
WDR45 (UniProt Q9Y484) -0.022
VPS4A (UniProt Q9UN37) 0.023
WASF2 (UniProt Q9Y6W5) 0.088
WRAP53 (UniProt Q9BUR4) 0.07
WDR77 (UniProt Q9BQA1) -0.127
WIPF3 (UniProt A6NGB9) 0.107
WASF1 (UniProt Q92558) 0.064
VPS26B (UniProt Q4G0F5) -0.059

compound: CC(C)N(C[C@H]1O[C@@H](n2cnc3c(N)ncnc32)[C@H](O)[C@@H]1O)[C@H]1C[C@@H](CCc2nc3cc(C(C)(C)C)ccc3[nH]2)C1 [pinometostat]; experiment: as above
Outline: as §1

log2 fold change, inactive:
WDR5 (UniProt P61964) 0.104
WDR6 (UniProt Q9NNW5) 0.07
WDR13 (UniProt Q9H1Z4) -0.06
VPS4B (UniProt O75351) -0.004
WDR74 (UniProt Q6RFH5) 0.152
WDR36 (UniProt Q8NI36) 0.182
VPS13C (UniProt Q709C8) 0.012
WIPF2 (UniProt Q8TF74) 0.051
VPS36 (UniProt Q86VN1) -0.012
WDR70 (UniProt Q9NW82) -0.033
VPS26A (UniProt O75436) 0.011
VPS29 isoform 2 (UniProt Q9UBQ0) -0.016
WBP11 (UniProt Q9Y2W2) -0.029
WDR26, A0A499FIZ0 0.017
VPS45 (UniProt Q9NRW7) 0.03
WDR82 (UniProt Q6UXN9) 0.116
WDFY1 (UniProt Q8IWB7) 0.007
VPS37B (UniProt Q9H9H4) -0.002
VWDE (UniProt Q8N2E2) 0.054
VWA5A (UniProt O00534) 0.075
VPS13A (UniProt Q96RL7) 0.006
WASL (UniProt O00401) 0.035
WDR73 (UniProt Q6P4I2) -0.004
WASHC4 (UniProt Q2M389) 0.112
VPS35 (UniProt Q96QK1) -0.019
WDR45 (UniProt Q9Y484) -0.017
VPS4A (UniProt Q9UN37) -0.018
WASF2 (UniProt Q9Y6W5) -0.023
WRAP53 (UniProt Q9BUR4) -0.015
WDR77 (UniProt Q9BQA1) 0.003
WIPF3 (UniProt A6NGB9) 0.001
WASF1 (UniProt Q92558) 0.023
VPS26B (UniProt Q4G0F5) 0.022
